According to publication doi:10.1101/2021.01.18.426261:
Results are given in words; binding and its absence hold for the method and conditions named. Binding seen in cells or lysates may run through a third protein. Binding can be weak; no strength is given.

Molecular target: T1, TSC1 (rat brain) (rat (endogenous in brain)) (UniProt Q9Z136)
T1 sequence: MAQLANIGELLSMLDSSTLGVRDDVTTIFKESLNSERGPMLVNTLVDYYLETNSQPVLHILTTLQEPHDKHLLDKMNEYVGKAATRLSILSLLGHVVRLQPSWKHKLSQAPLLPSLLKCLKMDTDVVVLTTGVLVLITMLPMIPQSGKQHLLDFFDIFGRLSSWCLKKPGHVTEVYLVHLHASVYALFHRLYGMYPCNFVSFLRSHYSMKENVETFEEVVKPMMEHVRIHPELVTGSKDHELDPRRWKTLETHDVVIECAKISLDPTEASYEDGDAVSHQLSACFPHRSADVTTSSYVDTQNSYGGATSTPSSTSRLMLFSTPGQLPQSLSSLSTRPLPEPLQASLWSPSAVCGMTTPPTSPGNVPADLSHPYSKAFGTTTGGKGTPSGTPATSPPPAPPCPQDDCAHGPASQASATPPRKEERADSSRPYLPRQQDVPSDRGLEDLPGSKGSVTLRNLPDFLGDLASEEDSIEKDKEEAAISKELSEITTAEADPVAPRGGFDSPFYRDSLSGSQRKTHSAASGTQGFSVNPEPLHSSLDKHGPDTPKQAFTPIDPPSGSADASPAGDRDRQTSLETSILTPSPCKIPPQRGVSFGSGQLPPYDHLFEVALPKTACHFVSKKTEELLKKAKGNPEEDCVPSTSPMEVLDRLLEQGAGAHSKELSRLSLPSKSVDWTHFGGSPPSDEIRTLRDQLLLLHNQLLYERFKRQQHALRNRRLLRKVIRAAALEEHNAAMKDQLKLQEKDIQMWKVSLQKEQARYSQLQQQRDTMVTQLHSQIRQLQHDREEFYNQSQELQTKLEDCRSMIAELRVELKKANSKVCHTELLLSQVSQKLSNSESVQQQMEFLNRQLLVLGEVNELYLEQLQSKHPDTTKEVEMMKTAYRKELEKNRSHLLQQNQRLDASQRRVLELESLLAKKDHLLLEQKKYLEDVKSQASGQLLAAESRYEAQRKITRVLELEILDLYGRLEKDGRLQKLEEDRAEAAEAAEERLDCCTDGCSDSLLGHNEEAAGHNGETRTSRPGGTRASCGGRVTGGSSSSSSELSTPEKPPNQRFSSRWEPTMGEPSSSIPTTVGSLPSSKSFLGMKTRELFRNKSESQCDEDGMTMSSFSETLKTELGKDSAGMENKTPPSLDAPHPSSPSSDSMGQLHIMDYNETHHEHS
Assay: co-IP

Question: How did the binding turn out when TBC1D7 (rat brain) was run?
Answer: Its binding is “binds”.
